Laboratory results published in patent US9980943B2, “Methods of treating muscular dystrophy” (BOARD OF REGENTS OF THE NEVADA SYSTEM OF HIGHER EDUCATION, …, priority 2013, dated 2018).
At least one structure is not confirmed: it was looked up by name or label, or the drawing left a doubt.

Tested on: α7 integrin (LacZ reporter in α7+/LacZ myotubes)
Assay: Myotube α7 integrin FDG assay (Burkin assay in myotubes, 96-well)
Type: cell-based, mouse
Conditions: hits of Prestwick/Microsource screens

## CC(=O)N(O)CCCCCNC(=O)CCC(=O)N(O)CCCCCNC(=O)CCC(=O)N(O)CCCCCN [deferoxamine, reference compound]
  dose-response curve in myotubes: positive dose-response curves
